Results taken from paper doi:10.1101/2023.03.07.531564.
Results are given in words; binding and its absence hold for the method and conditions named. Binding seen in cells or lysates may run through a third protein. A yes stands for co-enrichment or nearness to the bait. Other partners may have been found.

Sequences of proteins named here, by UniProt entry; tags and fusion partners are left off. A change or cut given only in a name is not applied to a line headed by its entry. A line that says so, or that is headed by a name, gives the form on record, which may keep a tag or linker.
UniProt Q9EPK5: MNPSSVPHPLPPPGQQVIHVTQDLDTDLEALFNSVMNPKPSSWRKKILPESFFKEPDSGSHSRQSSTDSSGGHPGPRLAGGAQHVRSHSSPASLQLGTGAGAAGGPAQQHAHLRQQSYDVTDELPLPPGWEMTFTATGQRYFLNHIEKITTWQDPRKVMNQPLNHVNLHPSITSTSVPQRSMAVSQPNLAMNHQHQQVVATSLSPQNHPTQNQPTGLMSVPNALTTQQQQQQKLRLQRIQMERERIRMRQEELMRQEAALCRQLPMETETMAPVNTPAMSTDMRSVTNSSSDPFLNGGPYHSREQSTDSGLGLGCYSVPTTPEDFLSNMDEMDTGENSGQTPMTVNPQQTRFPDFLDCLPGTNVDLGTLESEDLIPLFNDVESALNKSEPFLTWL
UniProt P46938: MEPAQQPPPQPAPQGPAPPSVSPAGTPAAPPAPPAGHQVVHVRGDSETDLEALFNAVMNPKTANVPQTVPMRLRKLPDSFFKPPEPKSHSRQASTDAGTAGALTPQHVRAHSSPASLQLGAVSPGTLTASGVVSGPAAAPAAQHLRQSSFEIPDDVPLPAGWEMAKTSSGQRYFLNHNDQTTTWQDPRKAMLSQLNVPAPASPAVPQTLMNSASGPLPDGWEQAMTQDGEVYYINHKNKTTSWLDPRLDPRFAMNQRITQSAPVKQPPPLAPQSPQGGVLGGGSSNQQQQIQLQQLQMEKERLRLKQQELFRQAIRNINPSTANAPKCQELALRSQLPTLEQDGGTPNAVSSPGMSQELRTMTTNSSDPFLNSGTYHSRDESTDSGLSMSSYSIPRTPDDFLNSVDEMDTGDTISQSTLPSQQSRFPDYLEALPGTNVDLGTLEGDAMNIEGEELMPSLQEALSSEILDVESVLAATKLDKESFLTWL
UniProt Q9EPL8: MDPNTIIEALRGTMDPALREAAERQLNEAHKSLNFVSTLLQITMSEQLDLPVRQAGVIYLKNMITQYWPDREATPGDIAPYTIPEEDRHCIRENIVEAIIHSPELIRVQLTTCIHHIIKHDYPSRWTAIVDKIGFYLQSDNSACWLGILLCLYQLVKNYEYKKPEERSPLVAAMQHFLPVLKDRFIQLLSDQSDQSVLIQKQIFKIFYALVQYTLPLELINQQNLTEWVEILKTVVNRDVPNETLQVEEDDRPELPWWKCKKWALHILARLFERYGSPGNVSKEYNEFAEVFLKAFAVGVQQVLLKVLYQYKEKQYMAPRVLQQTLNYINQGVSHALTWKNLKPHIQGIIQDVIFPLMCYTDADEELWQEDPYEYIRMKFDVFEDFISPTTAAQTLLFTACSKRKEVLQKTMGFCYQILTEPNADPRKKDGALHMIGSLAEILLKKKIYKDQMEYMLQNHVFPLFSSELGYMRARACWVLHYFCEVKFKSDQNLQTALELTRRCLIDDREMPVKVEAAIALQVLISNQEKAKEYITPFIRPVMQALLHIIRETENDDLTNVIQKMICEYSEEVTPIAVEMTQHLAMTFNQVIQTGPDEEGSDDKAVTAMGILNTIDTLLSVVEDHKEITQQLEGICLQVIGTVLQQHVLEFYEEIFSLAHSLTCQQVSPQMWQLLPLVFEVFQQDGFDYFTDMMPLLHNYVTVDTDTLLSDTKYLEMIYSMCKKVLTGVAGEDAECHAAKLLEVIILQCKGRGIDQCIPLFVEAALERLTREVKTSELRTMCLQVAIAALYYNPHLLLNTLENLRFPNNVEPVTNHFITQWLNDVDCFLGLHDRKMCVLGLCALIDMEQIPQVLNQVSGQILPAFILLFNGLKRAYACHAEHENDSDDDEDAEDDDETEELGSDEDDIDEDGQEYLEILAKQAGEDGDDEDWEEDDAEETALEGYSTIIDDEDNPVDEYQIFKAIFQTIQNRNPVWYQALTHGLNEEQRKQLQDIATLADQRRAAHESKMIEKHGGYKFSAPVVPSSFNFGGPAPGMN
Nup205 (nuclear pore protein NUP205) (B9EJ54, form named): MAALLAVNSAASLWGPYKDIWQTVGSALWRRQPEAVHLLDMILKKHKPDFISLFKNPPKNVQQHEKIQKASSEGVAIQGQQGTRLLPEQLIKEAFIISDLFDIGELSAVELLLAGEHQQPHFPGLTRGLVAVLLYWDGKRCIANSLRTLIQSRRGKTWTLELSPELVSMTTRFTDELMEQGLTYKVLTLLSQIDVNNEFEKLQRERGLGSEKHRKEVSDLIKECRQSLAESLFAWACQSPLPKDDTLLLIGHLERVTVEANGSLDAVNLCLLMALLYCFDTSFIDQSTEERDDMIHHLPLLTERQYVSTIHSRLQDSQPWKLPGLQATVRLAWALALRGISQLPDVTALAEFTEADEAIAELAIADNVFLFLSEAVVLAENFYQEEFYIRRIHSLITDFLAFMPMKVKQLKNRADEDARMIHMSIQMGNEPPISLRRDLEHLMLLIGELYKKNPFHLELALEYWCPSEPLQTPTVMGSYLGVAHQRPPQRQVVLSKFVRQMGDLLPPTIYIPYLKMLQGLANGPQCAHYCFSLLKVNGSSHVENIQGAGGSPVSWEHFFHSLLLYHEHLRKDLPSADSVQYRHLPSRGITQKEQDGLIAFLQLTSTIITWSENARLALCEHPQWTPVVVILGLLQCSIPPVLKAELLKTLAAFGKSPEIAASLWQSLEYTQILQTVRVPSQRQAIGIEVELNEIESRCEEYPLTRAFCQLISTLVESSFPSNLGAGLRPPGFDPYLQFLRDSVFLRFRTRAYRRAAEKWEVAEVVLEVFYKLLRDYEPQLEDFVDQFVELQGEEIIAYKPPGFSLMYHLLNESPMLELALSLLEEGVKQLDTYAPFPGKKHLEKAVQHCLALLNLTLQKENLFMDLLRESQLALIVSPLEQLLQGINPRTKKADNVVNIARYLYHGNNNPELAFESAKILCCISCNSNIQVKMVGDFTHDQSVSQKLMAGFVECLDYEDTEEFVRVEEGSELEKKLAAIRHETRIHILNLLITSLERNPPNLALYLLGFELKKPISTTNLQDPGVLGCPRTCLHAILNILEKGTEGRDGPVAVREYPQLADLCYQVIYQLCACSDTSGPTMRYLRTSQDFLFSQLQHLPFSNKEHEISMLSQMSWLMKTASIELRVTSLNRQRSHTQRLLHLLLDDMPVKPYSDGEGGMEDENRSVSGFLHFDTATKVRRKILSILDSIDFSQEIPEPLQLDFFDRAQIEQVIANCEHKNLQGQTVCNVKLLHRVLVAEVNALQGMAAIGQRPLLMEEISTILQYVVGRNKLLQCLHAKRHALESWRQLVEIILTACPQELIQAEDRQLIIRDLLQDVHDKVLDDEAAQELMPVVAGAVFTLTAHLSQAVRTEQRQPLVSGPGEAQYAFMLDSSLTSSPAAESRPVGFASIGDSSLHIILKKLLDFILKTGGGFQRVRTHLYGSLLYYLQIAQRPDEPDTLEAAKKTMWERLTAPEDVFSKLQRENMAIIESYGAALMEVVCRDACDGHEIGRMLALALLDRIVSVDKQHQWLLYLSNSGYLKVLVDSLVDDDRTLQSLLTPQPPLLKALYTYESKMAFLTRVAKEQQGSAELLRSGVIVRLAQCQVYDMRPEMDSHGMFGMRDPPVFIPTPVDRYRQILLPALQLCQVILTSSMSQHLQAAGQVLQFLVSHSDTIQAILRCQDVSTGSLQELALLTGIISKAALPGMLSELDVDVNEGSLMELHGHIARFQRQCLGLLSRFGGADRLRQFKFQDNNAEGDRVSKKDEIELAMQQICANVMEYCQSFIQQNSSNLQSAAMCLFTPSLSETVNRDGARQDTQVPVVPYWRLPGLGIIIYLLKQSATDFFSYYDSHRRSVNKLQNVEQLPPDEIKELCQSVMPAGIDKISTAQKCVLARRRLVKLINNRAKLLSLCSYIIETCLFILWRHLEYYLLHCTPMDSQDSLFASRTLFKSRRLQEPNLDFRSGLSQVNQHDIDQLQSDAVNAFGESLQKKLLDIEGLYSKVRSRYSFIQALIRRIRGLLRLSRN

Columns and labels:
[1] = target: 3xFLAG.TAZ (flagged mouse Taz, WW-domain-containing transcription regulator 1) (mouse) (UniProt Q9EPK5); experiment: affinity purification with mass spectrometry
[2] = target: 3xFLAG.YAP (flagged mouse Yap, Yes-associated protein) (mouse) (UniProt P46938); experiment: affinity purification with mass spectrometry

Substance	binding [1]	binding [2]
Ipo7 (from UniProt Q9EPL8 1-1038)	binds	
Nup205 (nuclear pore protein NUP205) (from UniProt B9EJ54 1-2008)	binds	binds
